Data on one molecule can be found in paper PMC5063588.

Chains of the proteins cited; added tags and fusions are not shown. Residues count along the entry.
UniProt Q9Z1T2, residues 27-963: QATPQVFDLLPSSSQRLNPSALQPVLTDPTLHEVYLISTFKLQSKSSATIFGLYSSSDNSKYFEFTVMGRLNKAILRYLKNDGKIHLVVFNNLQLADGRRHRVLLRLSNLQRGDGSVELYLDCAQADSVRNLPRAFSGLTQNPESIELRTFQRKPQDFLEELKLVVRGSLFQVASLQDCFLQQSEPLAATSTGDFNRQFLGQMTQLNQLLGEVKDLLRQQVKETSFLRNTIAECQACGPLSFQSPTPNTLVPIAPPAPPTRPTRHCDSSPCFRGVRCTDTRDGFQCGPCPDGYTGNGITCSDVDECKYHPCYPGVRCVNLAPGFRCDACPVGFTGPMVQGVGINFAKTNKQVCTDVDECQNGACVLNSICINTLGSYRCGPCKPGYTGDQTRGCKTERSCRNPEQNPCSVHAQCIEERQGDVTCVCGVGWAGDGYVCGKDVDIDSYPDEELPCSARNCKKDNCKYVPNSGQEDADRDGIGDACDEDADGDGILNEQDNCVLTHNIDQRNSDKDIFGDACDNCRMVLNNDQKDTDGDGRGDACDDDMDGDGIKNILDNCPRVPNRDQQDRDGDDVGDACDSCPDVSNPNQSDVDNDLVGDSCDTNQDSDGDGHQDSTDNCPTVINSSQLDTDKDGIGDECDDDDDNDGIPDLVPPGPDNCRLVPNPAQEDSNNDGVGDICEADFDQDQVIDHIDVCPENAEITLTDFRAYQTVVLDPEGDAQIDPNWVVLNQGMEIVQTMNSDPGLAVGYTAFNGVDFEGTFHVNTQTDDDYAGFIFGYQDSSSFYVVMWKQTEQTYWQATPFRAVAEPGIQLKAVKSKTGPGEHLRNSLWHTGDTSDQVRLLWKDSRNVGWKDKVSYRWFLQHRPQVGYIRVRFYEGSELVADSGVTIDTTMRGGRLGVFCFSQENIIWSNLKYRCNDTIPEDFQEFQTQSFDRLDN

In this test the target is Flag-tagged full-length Thbs4 (thrombospondin-4) (mouse) (UniProt Q9Z1T2). The experiment in a line: co-IP; lysates of rat neonatal cardiomyocytes harvested two days after transduction with adenovirus for Thbs4 with a C-terminal Flag tag (Adβgal as control); precipitated with anti-Flag magnetic beads; immunoblotted for Flag, β1D-integrin, α7-integrin and β-dystroglycan.

No constants are given. Whether binding was seen depends on the method and setting. In cells and extracts the contact can be indirect.

B1: α7-integrin (receptor, UniProt Q63258 34-1135)
chain: FNLDVMGAIRKEGEPGSLFGFSVALHRQLQPRPQSWLLVGAPQALALPGQQANRTGGLFACPLSLEETDCYRVDIDRGANVQKESKENQWLGVSVRSQGAGGKVVTCAHRYESRQRVDQVLETRDVIGRCFVLSQDLAIRDELDGGEWKFCEGRPQGHEQFGFCQQGTAATFSPDSHYLIFGAPGTYNWKGLLFVTNIDSSDPDQLVYKTLDPADRLTGPAGDLTLNSYLGFSIDSGKGLMRSEELSFVAGAPRANHKGAVVILRKDSASRLIPEVVLSGERLTSGFGYSLAVTDLNSDGWADLIVGAPYFFERQEELGGAVYVYMNQGGHWADISPLRLCGSPDSMFGISLAVLGDLNQDGFPDIAVGAPFDGDGKVFIYHGSSLGVVTKPSQVLEGEAVGIKSFGYSLSGGLDVDGNHYPDLLVGSLADTAALFRARPVLHVSQEIFIDPRAIDLEQPNCADGRLVCVHVKVCFSYVAVPSSYSPIVVLDYVLDGDTDRRLRGQAPRVTFPGRGPDDLKHQSSGTVSLKHQHDRVCGDTVFQLQENVKDKLRAIVVTLSYGLQTPRLRRQAPDQGLPLVAPILNAHQPSTQRTEIHFLKQGCGDDKICQSNLQLAQAQFCSRISDTEFQALPMDLDGTALFALSGQPFIGLELTVTNLPSDPARPQADGDDAHEAQLLATLPASLRYSGVRTLDSVEKPLCLSNENASHVECELGNPMKRGTQVTFYLILSTSGITIETTELKVELLLATISEQDLHPVSVRAHVFIELPLSISGVATPQQLFFSGKVKGESAMRSERDVGSKVKYEVTVSNQGQSLNTLGSAFLNIMWPHEIANGKWLLYPMRVELEGGQGPEKKGICSPRPNILHLDVDSRDRRRRELGQPEPQEPPEKVEPSTSWWPVSSAEKRNVTLDCAQGTAKCVVFSCPLYSFDRAAVLHVWGRLWNSTFLEEYMSVKSLEVIVRANITVKSSIKNLLLRDASTVIPVMVYLDPVAVVAEGVPWWVILLAVLAGLLVLALLVLLLWKLGFFKRAKHPEATVPQYHAVKILREDRQQFKEEKTGTIQRSNWGNSQWEGSDAHPILAADWHPELGPDGHPVSVTA
Take B1: the binding result is on record as “no binding”.
